# Data: PubChem BioAssay AID2517 (National Center for Advancing Translational Sciences (NCATS), 2010)
# Sequences of proteins named here, by UniProt entry; tags and fusion partners are left off.
# UniProt P27695, whole entry, looked up: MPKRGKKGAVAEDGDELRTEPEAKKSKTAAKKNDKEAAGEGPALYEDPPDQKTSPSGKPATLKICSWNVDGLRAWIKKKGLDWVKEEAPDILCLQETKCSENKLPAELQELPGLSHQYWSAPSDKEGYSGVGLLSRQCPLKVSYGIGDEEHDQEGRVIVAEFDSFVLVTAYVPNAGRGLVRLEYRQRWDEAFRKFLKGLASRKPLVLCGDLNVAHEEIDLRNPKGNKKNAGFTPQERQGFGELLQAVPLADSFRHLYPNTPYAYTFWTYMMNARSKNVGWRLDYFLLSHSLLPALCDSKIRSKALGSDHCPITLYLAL
# About 1,200 (0.34%) of roughly 350,000 compounds were called active. The shares of active, inactive and inconclusive entries below differ from those in the screen. The call rests on the fitted dose curve; in most records, active means well fitted inhibition curve with a large enough effect; inconclusive means small, poorly fitted or top-dose-only effect; inactive means no such curve, though single readings can be large or run the other way. Potencies of inconclusive entries are doubtful fits and often do not repeat.
# Biological target: DNA repair nuclease/redox regulator APEX1 (Homo sapiens) (UniProt P27695)
# Assay: qHTS Assay for Inhibitors of the Human Apurinic/apyrimidinic Endonuclease 1 (APE1); further: nearly all actives have a fitted effect of over 55% in size
# Conditions: recombinant APE1, TAMRA/BHQ-2 abasic DNA cleavage fluorescence; series mostly up to 65.8 µM
# Outline: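 APE1 at 0.75 nM preincubated 15 min at room temperature with compound. Reaction then started with 50 nM double-stranded THF-abasic substrate labelled with TAMRA/BHQ-2, and 525/598 nm fluorescence read kinetically. Activity taken as third-minus-first read difference, normalized to DMSO and NSC13755 controls.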
# Potency means the concentration at half of the fitted maximal effect.
row,SMILES,Potency
1,COc1cc(NC(=O)C2CC2C)c(C(=O)O)cc1OC (centres undefined),"inconclusive: 3.55 µM [inhibitor, single point]"
2,CCn1cnc2cc(NCc3ccccc3Cl)ccc21,inactive
3,CN(C(=O)c1cccs1)c1ccccc1C(=O)O,"inconclusive: 11.2 µM [inhibitor, partial curve]"
4,C=CCNC(=S)NCc1cccnc1,"inconclusive: 0.0089 µM [inhibitor, partial curve, poor fit]"
5,c1coc(-c2nnc(-c3ccco3)nn2)c1,"inconclusive: 21.2 µM [inhibitor, single point]"
6,CC(C)NC(=S)NC(=O)/C=C/c1ccc(F)cc1,"inconclusive: 7.94 µM [inhibitor, full curve]"
7,COc1cc(/C=N/NC(=O)c2ccc3c(c2)OCCO3)cc(Br)c1O,inactive
8,Cc1cc(/C=C(/C#N)c2nc3ccccc3[nH]2)c(C)n1-c1cc(C(=O)O)cc(C(=O)O)c1,"inconclusive: 22.4 µM [inhibitor, partial curve]"
9,N#Cc1c(NC(=O)c2ccc(Cn3cc(Br)cn3)o2)sc2c1CCCCC2,"inconclusive: 39.8 µM [inhibitor, partial curve]"
10,CCOC(=O)c1c(C=O)c2ccccc2n1CC,"inconclusive: 0.398 µM [inhibitor, full curve, poor fit]"
11,CCOC(=O)NC1(Nc2ccc(Cl)cn2)Oc2ccccc2O1,active: 2.51 µM
12,O=C(COC(=O)c1ccc([N+](=O)[O-])s1)NCc1ccccc1,"inconclusive: 39.8 µM [inhibitor, single point]"
13,COc1ccc(C(=O)Nc2nc3cc(OC)c(OC)cc3c(=O)[nH]2)cc1,"inconclusive: 44.7 µM [inhibitor, single point]"
14,O=C1/C(=C\c2ccc3c(c2)OCO3)CCC/C1=C/c1ccc2c(c1)OCO2,"inconclusive: 44.7 µM [inhibitor, single point]"
15,C=C1C(=O)O[C@H]2C1CC[C@@](C)(O)C13C=CC(C)(C21)C1(C3)C(=O)O[C@@H]2C3C(C)=CCC3[C@](C)(O)C[C@H](OC(C)=O)C21 (some centres undefined),"inconclusive: 0.0032 µM [inhibitor, full curve, poor fit]"
16,COc1ccc(OS(=O)(=O)c2c(C)noc2C)cc1,"inconclusive: 8.91 µM [inhibitor, single point]"
17,COc1ccccc1NCCC(=O)OCC(=O)NC1CC1,inactive
18,Cc1ccc(S(=O)(=O)N2CCCCC2)cc1NC(=O)CNCc1ccco1,"inconclusive: 0.398 µM [inhibitor, full curve, poor fit]"
19,COCCn1c(N)c(C(=O)NCc2cccs2)c2nc3ccccc3nc21,"inconclusive: 31.6 µM [inhibitor, single point]"

# Laid out differently: 2 of the compounds above.
row	SMILES	Potency
5	c1coc(-c2nnc(-c3ccco3)nn2)c1	inconclusive: 21.2 µM [inhibitor, single point]
6	CC(C)NC(=S)NC(=O)/C=C/c1ccc(F)cc1	inconclusive: 7.94 µM [inhibitor, full curve]
